## Percent effect of library compounds

From ChEMBL document CHEMBL3988442, “University of Dundee, Small-Polar-MMV Screening Library” (2021).

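Phenotypic screen: M. tuberculosis growth, glucose 7H9 medium, 3 days; the read-out is not stated. Concentration: 50 µM. Direction is inferred from retests: higher values go with more growth inhibition. Of about 69,000 compounds tested this way, about 760 (1.1%) reached 50% or more in at least one test.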

Results are given as percent effect. The controls that fix the scale are not given in the record; negative values are as filed. Compounds were drawn at random from those tested, without regard to their results. Two or more numbers in one place are separate tests of the same structure; such repeats can differ widely.

| structure | effect |
|---|---|
| `CC(C)=CCN1CCC(c2nccn2Cc2cscn2)CC1` | 7.461% |
| `Fc1cccc(CN2CCC(c3noc(-c4ccncc4)n3)CC2)c1F` | 19.02% |
| `NC(=O)CCS(=O)(=O)Cc1ccc(OCC(F)(F)F)cc1` | -21.98% |
| `CC(C)(C)c1cc(CN2CCOC(CCc3ccccc3)C2)n[nH]1` (stereo not drawn) | 5.445% |
| `COCC1c2nnn(CC3CC3)c2CCN1C(=O)c1cccn1C` (stereo not drawn) | -21.96% and -1.19% |
| `COCc1nccc(C2CCCN(Cc3ccc(C#N)cc3F)C2)n1` (stereo not drawn) | 25.12% |
| `CCCn1c(N2CCCC(C)C2)nc2c(C)nn(C)c2c1=O` (stereo not drawn) | 60.34% |
| `CC(C)n1cc(-c2c(C#N)c(N)nc3c2COCC3)cn1` | -34.72% |
| `O=C(CN1CCN(c2ccc3nncn3n2)CC1)NC1CCCCC1` | 16.05% |
| `COc1ccc2c(CN3CCCN(Cc4ccncc4)CC3)n[nH]c2c1` | 30.59% and 14.69% |
| `Cc1nccc(CN2CC[C@H](Oc3cccc(F)c3)[C@@](C)(O)C2)n1` | 13.61% |
| `COc1cc(C(=O)N2CCCC(c3cc(C)[nH]n3)C2)cc(OC)c1C` (stereo not drawn) | -41.74% |
| `Cc1nc(C2CCN(C(=O)c3cscn3)CC2)c2sccn12` | 16.09% |
| `Cn1c(SCC(O)COCc2ccc(Cl)cc2)nnc1C1CC1` (stereo not drawn) | -35.52% |
| `CCOCCCC(=O)NCC(c1ccccc1)N1CCc2sccc2C1` (stereo not drawn) | 17.3% |
| `[H][C@@]12CS(=O)(=O)C[C@]1([H])N(S(=O)(=O)c1ccccc1OC)CCN2CCC` | -5.819% and -0.9366% |
| `COCC1CN(C(=O)Nc2cc(Cl)ccc2F)CCO1` (stereo not drawn) | -0.9853% |
| `O=C(NCC1CCOC1)Nc1ccc(Oc2ccc(F)cc2)nc1` (stereo not drawn) | 9.771% |
| `CC(C)Nc1ncccc1C(=O)NCc1ncc[nH]1` | -4.179% |
| `CCCNC(=O)c1ccc(-c2ccco2)[nH]c1=O` | -14.49% |
| `Cc1nc(C(=O)N2CC[C@@]3(C[C@H](NS(C)(=O)=O)CCO3)C2)cs1` | -13.12% |
| `COc1ccc(CCCC(=O)N2CCCC(n3cccn3)C2)cc1` (stereo not drawn) | -20.74% |
| `O=C(O)C(F)(F)F.O=C(O)C(F)(F)F.[H][C@@]12CN(Cc3ccccn3)C[C@H](C(=O)Nc3cccnc3)[C@]1([H])CCO2` | -32.75% |
| `O=C(O)C(F)(F)F.[H][C@@]12CN(Cc3csnn3)C[C@]1([H])OCCN2c1cnccn1` | -7.592% |
| `Cc1ccc(C(=O)N2CCC(Oc3ccc(C)c(C)c3)CC2)c(=O)[nH]1` | 16.91% |
| `O=C(O)C(F)(F)F.O=C(O)C(F)(F)F.[H][C@@]12CN(Cc3ccco3)C[C@H](C(=O)Nc3cccnc3)[C@]1([H])CCO2` | -26.61% |
| `O=C(Cc1ccn[nH]1)Nc1cncc(Br)c1O` | -45.5% |
| `[H][C@]12CCN(C(=O)c3cc[nH]n3)CC[C@@]1([H])S(=O)(=O)N(Cc1cccnc1)C2` | -9.14% and -2.169% |
| `Cl.Cl.Clc1cccc(C[C@@H]2NCCC[C@@H]2Nc2ccccc2)c1` | 111.4% |
| `CC(=O)N(Cc1ncc(C)o1)C1CCN(CCc2cccs2)C1` (stereo not drawn) | -30.94% |
| `O=C(O)C(F)(F)F.[H][C@]12CN(CC(C)C)C[C@@]1([H])S(=O)(=O)CC[C@@H]2C(=O)NCC(C)C` | 25.99% |
| `CCN1CCN(C2CCN(Cc3nc(C)c(C)o3)CC2)C1=O` | -25.36% |
| `CCN(CC)S(=O)(=O)N1CCCC1c1nnc2n1CCN(C)CC2` (stereo not drawn) | -29.94% |
| `Cc1nccn1C1CCCN(C(=O)c2cc(Cl)c3c(c2)OCO3)C1` (stereo not drawn) | 0.4006% |
| `CNC(=O)C1(c2cnccn2)CCCN1C(=O)c1cccc(F)c1` (stereo not drawn) | -12.37% |
| `CN1CCN(CC2(O)CCN(C(=O)CCc3ccccc3F)C2)CC1` (stereo not drawn) | -12.48% |
| `O=C1NCc2ccccc2CC12CCN(Cc1ccncc1Cl)C2` (stereo not drawn) | 23.89% |
| `Cc1cc(CNC(=O)CC2CN(C(=O)OC(C)(C)C)C2)ccc1F` | 8.777% |
| `NC(=O)C1CCN(C(=O)NCc2cccnc2OC2CCCC2)C1` (stereo not drawn) | -36.88% and 0.5551% |
| `CC(C)n1nccc1NC(=O)CN1CCc2sccc2C1` | 0.3209% |
| `NC(=O)c1nc(-c2cccc(Cl)c2)oc1N` | 20.28% |
| `CC(=O)c1cccc(-c2nc3c([nH]2)CCNC3)c1F` | -0.5897% |
| `O=C(Nc1ccc(F)c(Cl)c1)N1CCCN([C@H]2COC[C@@H]2O)CC1` | -20.39% |
| `CC(C)[C@H]1CN(CCCO)C[C@@H]1NC(=O)CCC(F)(F)F` | -24.27% |
| `CN(CC(=O)N1CC(C)(C)[C@@](C)(O)C1)Cc1ccncc1` | 6.236% |
| `O=S(=O)(NCc1ccnc(-n2ccnc2)c1)c1cncc(Cl)c1` | -7.978% |
| `Cn1ccc(C(=O)N2CCN(c3nccs3)CC2)cc1=O` | 0.3132% and -6.36% |
| `COCC(=O)N1CCC(C(=O)Nc2ccc(S(N)(=O)=O)cc2)CC1` | -1.777% |
| `O=C1OCCN1c1cccc(CNCc2cc(F)ccc2F)c1` | -15.57% |
| `O=C(O)C(F)(F)F.[H][C@@]12CCN(c3ncccn3)[C@@]1([H])CCN2S(=O)(=O)c1cccc(F)c1` | 3.566% and 8.747% |
| `CC(NC(=O)CCCOc1cccc(F)c1)c1ccncc1` (stereo not drawn) | -5.38% |

Some entries from above, unchanged:

{"structure": "O=C(O)C(F)(F)F.O=C(O)C(F)(F)F.[H][C@@]12CN(Cc3ccccn3)C[C@H](C(=O)Nc3cccnc3)[C@]1([H])CCO2", "effect": -32.75}
{"structure": "Cc1nccn1C1CCCN(C(=O)c2cc(Cl)c3c(c2)OCO3)C1", "stereo": "stereo not drawn", "effect": 0.4006}
{"structure": "COCC(=O)N1CCC(C(=O)Nc2ccc(S(N)(=O)=O)cc2)CC1", "effect": -1.777}